One molecule from patent publication US20200102349A1, “PEPTIDE REAGENTS AND METHODS FOR DETECTION AND TARGETING OF DYSPLASIA, EARLY CANCER AND CANCER” (THE REGENTS OF THE UNIVERSITY OF MICHIGAN, priority 2014, published 2020) can be followed below.

Results are given in words; binding and its absence hold for the method and conditions named. Some results given as binding are weak or reduced against the parent protein; the word gives no strength.

For assay [1], the target named is Epidermal growth factor receptor (EGFR), human, on cells (human) (UniProt P00533). Description: competition with QRH*-Cy5.5 on HT29 cells, fluorescence microscopy.
Assay [2] has the same target. Briefly: competition: unlabeled QRH* at 0-500 µM, then 5 µM QRH*-Cy5.5, HT29 cells, fluorescence microscopy.

B1: unlabeled QRH* peptide (peptide)
peptide: QRHKPREGGGSK
On to B1, for which the binding entry in assay [1] and in assay [2] was “binds” each time.
